# According to PubChem BioAssay AID1259354 (Paczesny and Yang Labs, IUPUI and University of Michigan, 2018):
# The chains behind the UniProt entries cited, without tags or fusion partners. Where a name states a change or a piece, a line headed by the entry shows the natural chain unless it says otherwise.
# UniProt Q01638: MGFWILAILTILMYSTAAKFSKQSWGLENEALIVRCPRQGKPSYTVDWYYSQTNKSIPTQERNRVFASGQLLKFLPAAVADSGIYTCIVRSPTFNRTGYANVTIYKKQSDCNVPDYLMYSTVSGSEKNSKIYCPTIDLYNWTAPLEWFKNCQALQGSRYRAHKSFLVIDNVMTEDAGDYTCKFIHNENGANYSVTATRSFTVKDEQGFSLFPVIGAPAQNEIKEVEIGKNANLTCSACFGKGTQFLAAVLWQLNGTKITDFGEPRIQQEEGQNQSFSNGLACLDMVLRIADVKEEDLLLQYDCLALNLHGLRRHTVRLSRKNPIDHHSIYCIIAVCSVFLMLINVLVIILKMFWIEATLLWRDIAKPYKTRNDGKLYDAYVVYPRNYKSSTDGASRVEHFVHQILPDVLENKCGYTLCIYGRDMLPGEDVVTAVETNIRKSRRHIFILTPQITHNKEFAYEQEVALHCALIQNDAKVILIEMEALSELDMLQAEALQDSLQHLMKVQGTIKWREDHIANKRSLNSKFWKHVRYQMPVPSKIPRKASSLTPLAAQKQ
# Hit rate of the full screen: of about 78,000 compounds, about 1,800 (2.3%) were called active. Inconclusive means that the source gave no clear call. Such entries were picked first, then a sample of the others. Cut-off read from the data, not from the text of the source: active = inhibition above about 30%; inconclusive = mostly about 10% to 28%; inactive = weaker than that.
# Target: Interleukin-1 receptor-like 1 (Homo sapiens) (UniProt Q01638)
# Test: blocks human ST2 binding to IL-33, primary screen, biochemical, AlphaLISA (AID 1259354)
# Settings: AlphaLISA ST2-Fc/biotin-IL-33 interaction, 1 h; at 17 µM, stronger effect = higher value
row,Compound,inhibition
1,Cc1csc2ncc(C(=O)Nc3cccc(Br)c3)c(=O)n12,inconclusive: 15%
2,COc1ccc(CNC(=O)N(Cc2ccncc2)C2CCN(C)CC2)cc1,inconclusive: 18%
3,COc1ccc(NC(=O)CCCn2nc([N+](=O)[O-])c(Cl)c2C)cc1OC,inconclusive: 17%
4,CCOc1ccc2sc(C=NCc3ccc(OC)cc3)c(O)c2c1,inconclusive: 23%
5,CCOc1ccc2nc(NC(=O)C3CCCCC3)sc2c1,inactive
6,NC(=O)C1CCN(C(=O)CSc2c3c(nc4ccc(Cl)cc24)CCCC3)CC1,inconclusive: 18%
7,Cc1nn(Cc2ccc(Cl)cc2)c(C)c1NC(=O)c1cc(-c2ccc(F)cc2)on1,inactive
8,CCOC(=O)C1(CCOc2ccccc2)CCN(C(=O)c2ccc3oc(C)cc3c2)CC1,inactive
9,O=C(CSc1c2c(nc3cc(Cl)ccc13)CCCC2)N1CCN(c2ccccc2F)CC1,inconclusive: 14%
10,O=C(C#Cc1cccc([N+](=O)[O-])c1)c1ccccc1,inconclusive: 21%
11,CC12C=CC(O1)C1C(=O)N(c3cc(C(F)(F)F)ccc3Cl)C(=O)C12 (centres undefined),inconclusive: 14%
12,CCC(=O)N1CCc2cc(Br)cc(S(=O)(=O)Nc3cccc(Cl)c3)c21,inactive
13,COCCNC(=O)C1C2C=CC3(CN(Cc4ccccc4Cl)C(=O)C13)O2 (centres undefined),inactive
14,COCC(=O)Nc1cc(C(=O)N(C)Cc2cc3ccccc3s2)c2c(c1)nc(C1CCC1)n2C,inactive
15,COc1cc(C2=N/C(=C\c3ccc(Br)cc3)C(=O)O2)cc(OC)c1OC,inconclusive: 11%
16,Cc1nnc(SCC(=O)N2CCc3c([nH]c4ccccc34)C2C2CCCCC2)s1 (centres undefined),inconclusive: 19%
17,O=C1CC(NCc2cccc3c2OCO3)CN1CCCc1ccccc1 (centres undefined),inactive
18,CC(C)(C)c1cc(O)c(C(C)(C)C)cc1O,inconclusive: 23%
19,Cc1ccccc1C(=O)Nc1ccccc1C(=O)NCc1ccccc1,inconclusive: 10%
20,C=C(C)COc1ccc2c3c(c(=O)oc2c1C)CCCC3,inactive
21,Cc1ccc(S(=O)(=O)c2nc(-c3cccs3)oc2SC(C)C)cc1,inconclusive: 10%
22,O=C(Nc1ccc(N=Cc2ccc(O)c(O)c2)cc1)c1ccc(F)cc1,inactive
23,COc1ccc(-c2noc([C@@H]3Cc4nc[nH]c4CN3C(=O)Nc3ccc(Cl)cc3)n2)cc1,inactive
24,COC(=O)c1cc(NS(=O)(=O)c2cccc3cccnc23)cc(C(=O)OC)c1,inactive

row,Compound,inhibition
1,CN1C(=O)N(C)C(NC(=O)NC(C)(C)C)C1NC(=O)NC(C)(C)C (centres undefined),inconclusive: 10%
2,COc1ccc(/C=C2\NC(=O)N(Cc3ccc(Cl)cc3)C2=O)cc1I,inactive
3,CCn1c(C2CCNCC2)nn(CCCc2ccccc2)c1=O,inactive
4,O=C1CCC(C(=O)N2CCC3(CCCN(CCC4CCCCC4)C3)C2)=NN1 (centres undefined),inactive
5,c1ccc(-c2ncn(C3CCSC3)c2-c2cccn2-c2ncccn2)cc1 (centres undefined),inconclusive: 20%
6,Cc1ccc(Sc2c(C)nn(C(=O)CNS(=O)(=O)c3ccc(F)cc3)c2C)cc1,inconclusive: 22%
7,COc1ccc(C2C(C#N)=C(N)N(c3ccc(Br)cc3)C3=C2C(=O)CCC3)cc1 (centres undefined),inactive
8,Cc1ccc(CN2CC[C@H](c3nnc(Cc4c[nH]c5ccccc45)o3)C2)o1,inconclusive: 10%
9,CN1CC[C@@H]2[C@H]1C(=O)NC[C@H](CCC(=O)NCc1cccs1)N2C,inconclusive: 21%
10,COc1ccc(CN2CCN(c3cccc(Cl)c3)CC2)c(OC)c1C,inconclusive: 27%
11,Fc1ccccc1Cn1c(CSC2=NCCN2)nc2ccccc21,inconclusive: 17%
12,O=C(CN1C(=O)C2CCCCN2c2ccc(S(=O)(=O)N3CCCCC3)cc21)NC1CCCCC1 (centres undefined),inconclusive: 10%
13,Cc1ccc2cc(C3(O)CCN(C(=O)CN4CCOC4=O)CC3)ccc2n1,inconclusive: 10%
14,Cc1cc(C)n(C2CCN(Cc3cccn3-c3ncccn3)C2)n1 (centres undefined),inactive
15,COc1ccc(-c2[nH]ncc2CN2CC[C@H]3CC[C@@H](C2)N3)cc1,inconclusive: 15%
16,O=C(NCc1cccs1)c1ccc2c(c1)N(Cc1ccc(F)cc1)C(=O)CS2,inconclusive: 20%
17,O=S1(=O)C=C(N2CCCCC2)c2ccccc21,inconclusive: 18%
18,O=C(Nc1cccnc1)C1(S(=O)(=O)c2ccc(Cl)cc2)CC1,inconclusive: 22%
19,CCN(CC)CCNc1ncnc2c1cnn2-c1cccc(C)c1,inconclusive: 16%
20,O=C(Cn1c(=O)n(-c2ccccc2)c(=O)c2sccc21)NCc1ccco1,inconclusive: 10%
21,COc1ccc(CCC(=O)NC2CC(=O)N(c3ccccc3)C2)cc1 (centres undefined),inconclusive: 17%
22,OCc1cccc(-n2ccnc2-c2ccnn2-c2ccccc2)c1,inconclusive: 18%
23,CC/C=C/c1c(OC)cc(=O)oc1C,inactive
24,COc1ccc(C(=O)N2CCCC2)c(OC2CCN(C(=O)C3CCCO3)CC2)c1 (centres undefined),inconclusive: 14%

row,Compound,inhibition
1,CCOc1ccc(OCC)c(S(=O)(=O)N2CCN(c3nc(C)cc(N(C)C)n3)CC2)c1,inactive
2,COc1ccc(C(=O)NC2CC2)c(OC2CCN(Cc3cnc(SC)nc3)CC2)c1,inconclusive: 13%
3,N#Cc1ccc(-c2ccccc2)nc1SCC(=O)c1ccc(O)c(O)c1,inactive
4,COC(=O)c1ccc2c(c1)N(C)C(=O)CS2=O (centres undefined),inconclusive: 15%
5,O=c1c(CN2CCc3ccccc3C2)coc2ccccc12,inactive
6,COc1ccccc1N1CCN(C(c2ccccc2)c2n[nH]c(=O)c3ccccc23)CC1 (centres undefined),inactive
7,Cc1ccc(N2C(=O)CC(Sc3nc(C)cc(C(F)(F)F)c3C#N)C2=O)cc1 (centres undefined),inconclusive: 16%
8,CC(=O)c1cc(C)c(O)c(CC2=C(O)C(C)OC2=O)c1O (centres undefined),inactive
9,CC#C[C@]1(O)CC[C@H]2[C@@H]3CCC4=CC(=O)CCC4=C3[C@@H](c3ccc(N(C)C)cc3)C[C@@]21C,inconclusive: 23%
10,CC(C)c1ccccc1NS(=O)(=O)c1ccccc1[N+](=O)[O-],inconclusive: 10%
11,CN1CCN(C(=O)CN2C(=O)/C(=C\c3ccc(C(F)(F)F)cc3)Sc3ccccc32)CC1,inconclusive: 21%
12,Oc1ccccc1/C=C/c1nc(-c2ccccc2O)n(-c2ccccc2)n1,active: 36%
13,COc1ccc(Cl)cc1C(=O)NCCc1ccc(S(=O)(=O)NC(=O)NC2CCCCC2)cc1,inconclusive: 14%
14,O=C1CC(C(F)(F)C(F)F)=Nc2ccccc2N1,inconclusive: 14%
15,CCOC(=O)N1CCN(C(=O)c2cc(NC(=O)CC)cc3nc(Cc4ccccc4)n(C)c23)CC1,inconclusive: 13%
16,CC(C)(O)C#Cc1ccc(CN2CC(c3ccncc3)C2)cc1,inconclusive: 15%
17,CSc1nnc2c(n1)OC(c1ccco1)N(C(=O)c1ccccc1)c1ccccc1-2 (centres undefined),inactive
18,COCc1cc(N2CC[C@@H](N)[C@@H](OC)C2)ncn1,inconclusive: 10%
19,CCNc1nc(-c2nnc(-c3cccc(C)c3)o2)nc2ccccc12,inconclusive: 17%
20,CC(C)(C)C(=O)Nc1ncnc2sc3c(c12)CCCC3,inactive
21,O=C1Nc2ccc(-c3ccccc3F)cc2C(=O)N2CCN(C(=O)C3CCCCC3)C[C@H]12,inconclusive: 12%
22,CCc1nc(CN(C)CCC(=O)NC2CCCCCC2)no1,inactive
23,COc1ccc(OC(C)C(=O)Nc2ccc(I)cc2C)cc1 (centres undefined),inactive
24,CC(C)Oc1ccc(C(=O)N(c2ccc(C(C)C)cc2)C2C=CS(=O)(=O)C2)cc1 (centres undefined),inactive

row,Compound,inhibition
1,COc1ccccc1C1C(=C(O)c2ccc(Cl)cc2)C(=O)C(=O)N1c1ccccc1 (centres undefined),inactive
2,COc1ccc(OCCOc2cccc(C=O)c2)cc1,inactive
3,O=C(c1ccccc1)N1CCC2(Cl)CCCCC2C1c1ccccc1 (centres undefined),inactive
4,COc1cc2c(C(=O)N3CCC(C)CC3)cn(C)c(=O)c2cc1OC,inactive
5,COc1cccc(CN(C)Cc2noc(C3CCC3)n2)c1O,inconclusive: 11%
6,CC(C)Oc1ccc(-c2nn(-c3ccccc3)cc2/C=c2\sc3ncnn3c2=O)cc1,inconclusive: 11%
7,CC1CCCC(C)N1C(=O)c1ccc(Br)cc1 (centres undefined),inactive
8,C=CCn1c2ccccc2c2nnc(SCC(=O)Nc3ncccn3)nc21,inactive
9,O=C(CCN1C(=O)C2C3C=CC(CC3)C2C1=O)Nc1ccc2c(c1)OCO2 (centres undefined),inconclusive: 13%
10,COc1cc(OC)cc(-c2cccc(C(C)N(C)C)c2)c1 (centres undefined),inconclusive: 10%
11,CC(=O)Nc1ccc(S(=O)(=O)NCCC2=CCCCC2)cc1,inconclusive: 11%
12,COc1ccccc1CN(CN1C(=O)c2ccccc2C1=O)CN1C(=O)c2ccccc2C1=O,inconclusive: 14%
13,O=C(CCc1ccc(O)cc1)CC(CCc1ccc(O)cc1)O[C@@H]1O[C@H](CO)[C@@H](O)[C@H](O)[C@H]1O (some centres undefined),inconclusive: 12%
14,CC(C)(C)n1cnc2cc(NCc3ccc(Cl)cc3Cl)ccc21,inactive
15,Cc1cc([N+](=O)[O-])nn1CCCC(=O)Nc1sc2c(c1C(N)=O)CCC(C)C2 (centres undefined),inactive
16,CCOC(=O)c1c(C)oc2ccc(OCC(=O)c3ccccc3)cc12,inactive
17,COc1ccc(CC(=O)Nc2ccc(Nc3nc(C)cc(Nc4ccc(C)cc4)n3)cc2)cc1,inconclusive: 24%
18,COc1ccccc1NC(=O)Cn1nnc(-c2ccccc2F)n1,inconclusive: 13%
19,COc1cccc(OC)c1C(=O)N=c1sc2cccc(OC)c2n1C,inconclusive: 10%
20,Cc1cccc(CSc2nc3c(c(=O)n2-c2ccccc2)SCC3)c1,inconclusive: 14%
21,CC(C)(C)N=C(NS(=O)(=O)c1ccc(F)cc1)c1ccccc1,inconclusive: 24%
22,CC(C)[C@H]1NC(=O)[C@@H]2[C@@H](NC(=O)NC3CCCCC3)CCN2C1=O,active: 43%

# Fetched one by one from the entries so far (4):
row,Compound,inhibition
6,CC(C)Oc1ccc(-c2nn(-c3ccccc3)cc2/C=c2\sc3ncnn3c2=O)cc1,inconclusive: 11%
11,CC(=O)Nc1ccc(S(=O)(=O)NCCC2=CCCCC2)cc1,inconclusive: 11%
4,COc1cc2c(C(=O)N3CCC(C)CC3)cn(C)c(=O)c2cc1OC,inactive
7,CC1CCCC(C)N1C(=O)c1ccc(Br)cc1 (centres undefined),inactive
